# PubChem BioAssay AID296 (DTP/NCI, 2004)
# The list does not hold the whole screen: it is rich in T/C values a quarter to a half above the control, in often repeated tests (any T/C) and in doses without a T/C. Other doses and runs of a compound stand elsewhere. T/C is the treated group as % of the vehicle group. Schedules are NCI's codes, read here as Q, the interval in days (D) or hours (H), X, the number of doses. Some T/C values carry the count of animals alive at the toxicity check (mostly the fifth day); without a count, all were alive then. Some doses have a count of surviving animals in place of a T/C: the source files T/C as zero there, which appears to mark a toxic dose or a test without result, not a measured value. Survivors were counted at the toxicity check, usually on the fifth day, unless a day is given; later deaths do not show. Some entries hold several experiments; the results are listed from low to high. *1 amine or outer side, *2 acyl side, *3 side chain or, on linkers, in order; H or OH if unused. Where a SMILES comes first, the peptide text is derived from it. Bridges are numbered along the chain shown (N, C = ends). Roman numbers before positions name the chains, in order. [ ]: non-standard residue; d: D form. Actinocin(1to9) = Cc1c2oc3c(C)ccc(C(=O)[*:2])c3nc-2c(C(=O)[*:1])c(N)c1=O; NMeV = CN[CH](C(=O)O)C(C)C; Aze = O=C(O)[CH]1CCN1; Sar = CNCC(=O)O
# Tested on: MX-1 breast xenograft, nude mice, tumor weight T/C
# Assay: NCI In Vivo Anticancer Drug Screen. Data for tumor model Human Mammary Carcinoma MX-1 Xenograft (intrarenal inoculation) in NU/NU Swiss (nude) mice
# Details: T/C endpoint: mean tumor weight change, higher T/C = larger tumour; for T/C: evaluated on day 11
# Procedure, shortened: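 Read-out: treated (T) over vehicle control (C) ratio of survival or tumor size. Dosing in animals carrying the transplanted tumor.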
# [1] = dose: 300.0 mg/kg/injection, schedule: Q04DX003 (sc), vehicle: saline
# [2] = dose: 25.0 mg/kg/injection, schedule: Q04DX003 (sc), vehicle: water
structure (smiles),measurement,setting,value
O=C(Nc1ccc(C2=NCCN2)cc1)c1ccc(C(=O)Nc2ccc(C3=NCCN3)cc2)c(Cl)c1,survivor count,"dose: 600.0 mg/kg/injection, schedule: Q04DX003 (sc), vehicle: water",0 of 6 on day 11
Ic1ncnc2c1ncn2C1CCCO1 (configuration not stated),T/C,"dose: 100.0 mg/kg/injection, schedule: Q04DX003 (sc), vehicle: Klucel (hydroxypropylcellulose) (HPC)",141 % of control
COC1C(/C=C/C(C)=O)OC2OC(C)(C)OC21 (configuration not stated),T/C,"dose: 600.0 mg/kg/injection, schedule: Q04DX003 (sc), vehicle: suspension in saline",133 % of control [5 of 6 alive on day 11]
same,survivor count,"dose: 2400.0 mg/kg/injection, schedule: Q04DX003 (sc), vehicle: suspension in saline",0 of 3 on day 11
Cc1ccc(S(=O)(=O)N/N=C/C(Br)=C(/Br)C(=O)O)cc1,survivor count,"dose: 1200.0 mg/kg/injection, schedule: Q04DX003 (sc), vehicle: Klucel (hydroxypropylcellulose) (HPC)",0 of 6 on day 11
CC1=CC(=Nc2ccc(N(CCCl)CCCl)cc2)C=C(C)C1=O,survivor count,"dose: 2400.0 mg/kg/injection, schedule: Q04DX003 (sc), vehicle: Klucel (hydroxypropylcellulose) (HPC)",1 of 6 on day 11
Cc1ccc(S(=O)(=O)NC(=S)S)cc1,T/C,"dose: 100.0 mg/kg/injection, schedule: Q01DX010 (sc), vehicle: saline with Tween-80",135 % of control
same,survivor count,"dose: 800.0 mg/kg/injection, schedule: Q01DX010 (sc), vehicle: saline with Tween-80",0 of 3 on day 11
COC12C(COC(N)=O)C3=C(C(=O)C(C)=C(N)C3=O)N1CC1C2N1C (configuration not stated),survivor count,"dose: 16.0 mg/kg/injection, schedule: Q01DX010 (sc), vehicle: saline",0 of 6 on day 11 and 1 of 3 on day 11
same,survivor count,"dose: 32.0 mg/kg/injection, schedule: Q01DX010 (sc), vehicle: saline",0 of 3 on day 11 and 0 of 6 on day 11
Cc1nc(C(Cl)(Cl)Cl)[nH]c(=O)c1SCCO,survivor count,"dose: 1200.0 mg/kg/injection, schedule: Q04DX003 (ip), vehicle: distilled water + alcohol",3 of 6 on day 11
CC1(CO)C(O)CCC2(C)C1CCC1CC3CC12CCC3(O)CO (configuration not stated),survivor count,"dose: 200.0 mg/kg/injection, schedule: Q01DX010 (sc), vehicle: saline with Tween-80",1 of 3 on day 11
same,survivor count,"dose: 400.0 mg/kg/injection, schedule: Q01DX010 (sc), vehicle: saline with Tween-80",0 of 3 on day 11
[Cl][Mn][Cl],survivor count,[1],0 of 6 on day 11
CC(Cc1ccc(O)c(O)c1)C(C)Cc1ccc(O)c(O)c1 (configuration not stated),T/C,"dose: 600.0 mg/kg/injection, schedule: Q04DX003 (sc), vehicle: saline + alcohol",137 % of control
CC(=O)OC(C)C1C2=C(C(=O)CC1(C)O)C(=O)c1c(ccc(-c3ccc4c(c3O)C(=O)C3=C(C4=O)C(C(C)OC(C)=O)C(C)(O)CC3=O)c1O)C2=O (configuration not stated),T/C,"dose: 15.0 mg/kg/injection, schedule: Q04DX003 (sc), vehicle: saline with Tween-80",137 % of control
"Cc1c2oc3c(C)ccc(C(=O)NC4C(=O)NC(C(C)C)C(=O)N5CCCC5C(=O)N(C)CC(=O)N(C)C(C(C)C)C(=O)OC4C)c3nc-2c(C(=O)NC2C(=O)NC(C(C)C)C(=O)N3CCC3C(=O)N(C)CC(=O)N(C)C(C(C)C)C(=O)OC2C)c(N)c1=O (configuration not stated) (I: TV[Aze][Sar][NMeV] / II: TVP[Sar][NMeV]; ester I:1-I:C, II:1-II:C; linker I:N-II:N via Actinocin(1to9); configuration not given here)",survivor count,"dose: 2.0 mg/kg/injection, schedule: Q04DX003 (sc), vehicle: saline + alcohol",0 of 6 on day 11
NC(=O)c1csc(C2OC(CO)C(O)C2O)n1 (configuration not stated),survivor count,"dose: 1600.0 mg/kg/injection, schedule: Q04DX003 (sc), vehicle: water",3 of 6 on day 11
CC1(C)OC1CS(=O)c1ccccc1 (configuration not stated),T/C,"dose: 300.0 mg/kg/injection, schedule: Q04DX003 (sc), vehicle: saline with Tween-80",125 % of control
same,survivor count,"dose: 1200.0 mg/kg/injection, schedule: Q04DX003 (sc), vehicle: saline with Tween-80",2 of 6 on day 11
same,survivor count,"dose: 2400.0 mg/kg/injection, schedule: Q04DX003 (sc), vehicle: saline with Tween-80",0 of 6 on day 11
O=NN(CCCl)C(=O)NCCO,T/C,"dose: 12.5 mg/kg/injection, schedule: Q04DX003 (sc), vehicle: water",129 % of control
same,T/C,[2],143 % of control
same,survivor count,[2],3 of 5 on day 11
CCOC(=O)C(N)C[S][Sn]([CH3])([CH3])[Cl] (configuration not stated),T/C,"dose: 37.5 mg/kg/injection, schedule: Q04DX003 (sc), vehicle: saline",138 % of control
same,survivor count,"dose: 150.0 mg/kg/injection, schedule: Q04DX003 (sc), vehicle: saline",2 of 6 on day 11
same,survivor count,[1],0 of 6 on day 11
